Some of the results follow.

Protein sequences, listed by entry. Tags and fused reporters are not part of them. Lines headed by an entry give the natural chain unless they say otherwise; changes in a name come on top.
UniProt Q9HC52: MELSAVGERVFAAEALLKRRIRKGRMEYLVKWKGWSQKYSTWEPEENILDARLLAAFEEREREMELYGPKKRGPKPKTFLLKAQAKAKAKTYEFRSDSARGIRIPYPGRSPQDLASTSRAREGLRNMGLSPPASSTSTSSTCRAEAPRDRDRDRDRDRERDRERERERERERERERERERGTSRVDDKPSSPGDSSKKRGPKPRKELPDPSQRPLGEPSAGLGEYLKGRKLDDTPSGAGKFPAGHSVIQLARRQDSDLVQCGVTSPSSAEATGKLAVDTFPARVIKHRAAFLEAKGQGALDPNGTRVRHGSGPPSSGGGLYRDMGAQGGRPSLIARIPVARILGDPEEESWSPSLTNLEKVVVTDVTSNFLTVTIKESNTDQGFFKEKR
UniProt O15234, whole entry, looked up: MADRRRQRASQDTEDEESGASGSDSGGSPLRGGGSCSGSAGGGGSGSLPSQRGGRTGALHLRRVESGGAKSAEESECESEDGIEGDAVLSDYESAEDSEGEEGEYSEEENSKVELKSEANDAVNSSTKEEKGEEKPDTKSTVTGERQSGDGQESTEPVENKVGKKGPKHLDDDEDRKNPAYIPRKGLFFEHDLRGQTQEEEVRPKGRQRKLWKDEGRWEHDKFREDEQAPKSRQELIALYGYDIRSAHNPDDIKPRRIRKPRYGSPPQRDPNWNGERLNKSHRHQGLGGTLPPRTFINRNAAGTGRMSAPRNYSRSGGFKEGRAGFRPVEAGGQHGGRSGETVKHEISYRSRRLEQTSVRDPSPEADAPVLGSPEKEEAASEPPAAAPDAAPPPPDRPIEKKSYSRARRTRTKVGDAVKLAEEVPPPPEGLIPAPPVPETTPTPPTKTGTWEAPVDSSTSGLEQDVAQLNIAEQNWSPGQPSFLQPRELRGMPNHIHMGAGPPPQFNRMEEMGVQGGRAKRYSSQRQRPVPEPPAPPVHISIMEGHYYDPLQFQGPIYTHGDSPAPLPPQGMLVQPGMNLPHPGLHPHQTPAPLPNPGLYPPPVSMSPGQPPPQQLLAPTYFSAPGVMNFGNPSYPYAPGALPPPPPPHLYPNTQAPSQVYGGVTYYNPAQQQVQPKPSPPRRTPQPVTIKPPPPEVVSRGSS
UniProt Q9H6F5: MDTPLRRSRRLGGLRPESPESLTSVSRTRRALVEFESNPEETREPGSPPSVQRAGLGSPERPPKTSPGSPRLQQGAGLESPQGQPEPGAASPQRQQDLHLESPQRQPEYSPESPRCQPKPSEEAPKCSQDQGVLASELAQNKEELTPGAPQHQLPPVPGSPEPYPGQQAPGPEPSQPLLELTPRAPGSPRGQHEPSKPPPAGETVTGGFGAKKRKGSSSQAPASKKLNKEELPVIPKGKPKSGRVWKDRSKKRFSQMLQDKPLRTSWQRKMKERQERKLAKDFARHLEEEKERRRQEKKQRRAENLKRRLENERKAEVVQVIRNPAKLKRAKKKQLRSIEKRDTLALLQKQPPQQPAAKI
UniProt P13987: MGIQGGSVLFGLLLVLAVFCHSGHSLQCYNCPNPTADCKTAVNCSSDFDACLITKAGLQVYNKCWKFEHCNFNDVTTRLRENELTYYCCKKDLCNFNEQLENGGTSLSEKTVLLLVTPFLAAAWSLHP
UniProt O75081: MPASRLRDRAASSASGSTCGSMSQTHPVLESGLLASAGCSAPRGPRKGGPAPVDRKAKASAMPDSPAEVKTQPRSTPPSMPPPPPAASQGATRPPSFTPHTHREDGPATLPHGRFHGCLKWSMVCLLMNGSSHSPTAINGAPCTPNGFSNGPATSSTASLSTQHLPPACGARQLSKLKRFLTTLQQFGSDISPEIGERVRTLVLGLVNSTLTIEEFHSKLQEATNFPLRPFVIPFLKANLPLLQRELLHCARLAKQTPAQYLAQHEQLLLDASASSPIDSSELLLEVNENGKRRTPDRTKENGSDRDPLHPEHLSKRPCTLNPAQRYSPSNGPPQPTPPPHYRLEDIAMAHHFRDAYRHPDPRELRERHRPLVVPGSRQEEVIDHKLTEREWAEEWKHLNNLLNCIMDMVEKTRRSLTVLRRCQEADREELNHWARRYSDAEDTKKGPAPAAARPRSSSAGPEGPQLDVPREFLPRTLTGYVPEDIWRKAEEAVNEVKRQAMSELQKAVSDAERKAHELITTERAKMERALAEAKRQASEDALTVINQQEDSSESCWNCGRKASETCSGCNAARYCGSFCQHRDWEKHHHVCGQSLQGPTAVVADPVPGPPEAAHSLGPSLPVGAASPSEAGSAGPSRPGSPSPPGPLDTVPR
UniProt P50990: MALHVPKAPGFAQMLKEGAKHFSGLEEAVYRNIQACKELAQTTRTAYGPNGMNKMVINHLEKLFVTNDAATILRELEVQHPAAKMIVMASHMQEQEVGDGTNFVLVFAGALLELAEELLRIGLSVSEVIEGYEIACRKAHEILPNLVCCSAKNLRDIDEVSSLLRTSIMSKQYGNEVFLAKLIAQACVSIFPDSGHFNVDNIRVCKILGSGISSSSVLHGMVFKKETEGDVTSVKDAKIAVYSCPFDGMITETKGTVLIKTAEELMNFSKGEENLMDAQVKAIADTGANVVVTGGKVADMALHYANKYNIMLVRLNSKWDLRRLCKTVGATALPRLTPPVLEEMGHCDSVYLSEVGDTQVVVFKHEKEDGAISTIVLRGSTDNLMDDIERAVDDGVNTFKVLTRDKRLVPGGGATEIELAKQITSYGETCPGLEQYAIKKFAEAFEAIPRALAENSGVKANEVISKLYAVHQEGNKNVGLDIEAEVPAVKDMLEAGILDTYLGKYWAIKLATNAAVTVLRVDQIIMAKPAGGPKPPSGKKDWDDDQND
UniProt P20248, whole entry, looked up: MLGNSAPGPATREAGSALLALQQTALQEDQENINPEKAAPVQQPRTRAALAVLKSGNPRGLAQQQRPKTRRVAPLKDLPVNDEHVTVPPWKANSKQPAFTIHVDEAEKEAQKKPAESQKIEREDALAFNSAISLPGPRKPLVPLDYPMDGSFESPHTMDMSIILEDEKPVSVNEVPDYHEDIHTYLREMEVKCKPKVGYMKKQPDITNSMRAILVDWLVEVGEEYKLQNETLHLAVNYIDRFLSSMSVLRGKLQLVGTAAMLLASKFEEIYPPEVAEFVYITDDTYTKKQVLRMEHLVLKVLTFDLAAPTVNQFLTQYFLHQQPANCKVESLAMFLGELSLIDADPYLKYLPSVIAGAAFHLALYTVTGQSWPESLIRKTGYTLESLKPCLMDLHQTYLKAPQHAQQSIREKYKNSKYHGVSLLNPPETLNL
UniProt Q9BRT8: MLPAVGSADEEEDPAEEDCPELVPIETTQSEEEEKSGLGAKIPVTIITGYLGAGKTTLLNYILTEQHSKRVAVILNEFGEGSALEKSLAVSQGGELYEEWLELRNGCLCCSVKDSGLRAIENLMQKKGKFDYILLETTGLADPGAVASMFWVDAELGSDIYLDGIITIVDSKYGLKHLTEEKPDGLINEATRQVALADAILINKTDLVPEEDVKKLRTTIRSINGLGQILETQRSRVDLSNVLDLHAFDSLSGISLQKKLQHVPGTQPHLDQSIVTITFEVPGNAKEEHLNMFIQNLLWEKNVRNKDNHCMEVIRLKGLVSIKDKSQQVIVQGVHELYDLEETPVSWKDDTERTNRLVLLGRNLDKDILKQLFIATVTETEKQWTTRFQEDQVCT
UniProt Q6P4E1: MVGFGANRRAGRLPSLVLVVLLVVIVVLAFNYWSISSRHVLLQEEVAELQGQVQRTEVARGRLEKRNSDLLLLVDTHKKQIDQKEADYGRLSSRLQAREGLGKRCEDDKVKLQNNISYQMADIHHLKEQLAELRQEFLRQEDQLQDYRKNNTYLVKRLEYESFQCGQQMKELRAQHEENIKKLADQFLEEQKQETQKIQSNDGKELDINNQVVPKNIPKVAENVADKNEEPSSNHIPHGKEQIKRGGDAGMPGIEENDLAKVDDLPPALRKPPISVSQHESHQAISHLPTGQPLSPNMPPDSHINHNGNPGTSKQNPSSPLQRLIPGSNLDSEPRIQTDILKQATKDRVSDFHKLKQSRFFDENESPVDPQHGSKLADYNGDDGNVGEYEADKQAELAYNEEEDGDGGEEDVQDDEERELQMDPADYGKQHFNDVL
UniProt P49589: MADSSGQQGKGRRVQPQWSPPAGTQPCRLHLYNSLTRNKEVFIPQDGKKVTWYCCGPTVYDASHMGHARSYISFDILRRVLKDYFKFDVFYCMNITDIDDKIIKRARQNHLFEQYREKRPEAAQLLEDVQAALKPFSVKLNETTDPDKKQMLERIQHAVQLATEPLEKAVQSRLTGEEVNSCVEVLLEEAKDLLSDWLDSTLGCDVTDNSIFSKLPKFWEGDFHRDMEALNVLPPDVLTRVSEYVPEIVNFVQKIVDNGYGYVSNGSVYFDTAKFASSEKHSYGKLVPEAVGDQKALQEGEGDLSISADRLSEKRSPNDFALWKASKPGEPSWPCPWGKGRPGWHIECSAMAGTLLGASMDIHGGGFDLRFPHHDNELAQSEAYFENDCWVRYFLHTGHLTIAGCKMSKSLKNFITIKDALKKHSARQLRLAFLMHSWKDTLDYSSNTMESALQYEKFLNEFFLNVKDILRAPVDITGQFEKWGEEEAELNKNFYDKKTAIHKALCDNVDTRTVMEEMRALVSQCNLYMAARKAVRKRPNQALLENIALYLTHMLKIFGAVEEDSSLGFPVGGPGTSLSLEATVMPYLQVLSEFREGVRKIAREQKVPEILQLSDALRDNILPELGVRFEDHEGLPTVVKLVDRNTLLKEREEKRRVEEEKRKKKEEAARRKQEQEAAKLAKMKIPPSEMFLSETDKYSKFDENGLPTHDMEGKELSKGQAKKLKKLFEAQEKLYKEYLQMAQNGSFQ
UniProt Q567U6, whole entry, looked up: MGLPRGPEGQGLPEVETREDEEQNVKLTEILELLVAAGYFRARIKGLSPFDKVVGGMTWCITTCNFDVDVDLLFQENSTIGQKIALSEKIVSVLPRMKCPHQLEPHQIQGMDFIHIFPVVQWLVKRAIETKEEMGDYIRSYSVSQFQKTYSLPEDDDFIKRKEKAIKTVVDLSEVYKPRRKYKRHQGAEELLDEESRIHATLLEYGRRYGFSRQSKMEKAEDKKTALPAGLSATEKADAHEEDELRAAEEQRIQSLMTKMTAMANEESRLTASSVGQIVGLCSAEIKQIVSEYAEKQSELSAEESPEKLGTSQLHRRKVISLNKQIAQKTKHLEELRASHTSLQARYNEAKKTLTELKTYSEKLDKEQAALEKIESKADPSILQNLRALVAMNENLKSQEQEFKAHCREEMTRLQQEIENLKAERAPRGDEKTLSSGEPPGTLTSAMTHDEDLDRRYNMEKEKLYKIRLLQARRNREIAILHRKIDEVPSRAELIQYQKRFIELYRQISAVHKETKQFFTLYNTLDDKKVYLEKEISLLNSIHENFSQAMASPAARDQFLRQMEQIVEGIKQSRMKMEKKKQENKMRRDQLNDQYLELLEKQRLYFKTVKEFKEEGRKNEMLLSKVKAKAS
UniProt Q8N350: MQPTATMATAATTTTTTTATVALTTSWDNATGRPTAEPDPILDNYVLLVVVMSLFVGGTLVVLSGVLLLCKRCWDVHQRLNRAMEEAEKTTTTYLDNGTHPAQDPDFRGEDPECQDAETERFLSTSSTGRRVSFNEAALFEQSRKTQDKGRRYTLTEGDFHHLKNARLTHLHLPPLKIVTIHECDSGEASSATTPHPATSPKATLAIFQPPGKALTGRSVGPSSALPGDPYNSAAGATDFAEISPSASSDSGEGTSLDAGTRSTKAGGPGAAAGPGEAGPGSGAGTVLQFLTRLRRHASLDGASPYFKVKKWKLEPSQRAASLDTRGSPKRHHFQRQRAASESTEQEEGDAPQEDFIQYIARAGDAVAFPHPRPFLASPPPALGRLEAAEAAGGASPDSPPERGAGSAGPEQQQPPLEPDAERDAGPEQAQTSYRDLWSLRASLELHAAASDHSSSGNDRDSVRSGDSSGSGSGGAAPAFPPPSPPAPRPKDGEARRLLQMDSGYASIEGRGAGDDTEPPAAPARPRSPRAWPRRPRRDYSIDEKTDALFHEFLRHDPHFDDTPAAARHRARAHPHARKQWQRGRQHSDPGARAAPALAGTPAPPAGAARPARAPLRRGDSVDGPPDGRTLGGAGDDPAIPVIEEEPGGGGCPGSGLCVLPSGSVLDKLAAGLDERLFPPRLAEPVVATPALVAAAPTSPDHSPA
UniProt Q16543: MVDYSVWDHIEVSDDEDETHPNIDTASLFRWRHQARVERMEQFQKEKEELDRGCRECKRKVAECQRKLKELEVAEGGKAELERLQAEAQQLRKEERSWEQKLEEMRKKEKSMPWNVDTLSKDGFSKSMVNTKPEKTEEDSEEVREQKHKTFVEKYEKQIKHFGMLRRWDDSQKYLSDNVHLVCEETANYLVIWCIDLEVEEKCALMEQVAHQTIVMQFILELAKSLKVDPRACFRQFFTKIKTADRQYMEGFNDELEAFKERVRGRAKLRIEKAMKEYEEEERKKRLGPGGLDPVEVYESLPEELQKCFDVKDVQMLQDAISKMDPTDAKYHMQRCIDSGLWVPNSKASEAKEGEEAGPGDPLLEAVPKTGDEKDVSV

Compound in this test: c1cn2cc(-c3ccc4cn[nH]c4c3)nc(Nc3ccc(N4CCOCC4)cc3)c2n1 [entospletinib]
The experiment in a line: log2 fold change, soluble protein after heating vs DMSO (PISA); higher = thermal stabilisation; K562 cells, 10 uM, 30 min; active = over 0.2 and 3.5 SD of the protein, either way, in both replicates (recomputed). In outline:
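K562 cells (2×10^6 cells/mL) were treated with 10 μM compound for 30 min, and aliquots were heated for 3 min over 48°C-58°C. Pooled aliquots were extracted in PBS with 0.5% NP-40 at 4°C, and the supernatant after 21,000xg for 90 min was measured by TMTpro 16plex LC-MS/MS with channel sums equalised. Reported thermal stability, relative to control samples and from duplicates, is a log2 fold change.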
CBX8 (UniProt Q9HC52): the log2 fold change is inactive: 0.052.

Regarding CASC3 (UniProt O15234), the log2 fold change was active: 0.485.

As for CCDC186 (UniProt Q7Z3E2), the log2 fold change was inactive: 0.015.

As to CBLB (UniProt Q13191), the log2 fold change is inactive: -0.015.

For CCDC86 (UniProt Q9H6F5), the log2 fold change is inactive: -0.05.

For CD59 isoform 2 (UniProt P13987), the log2 fold change is inactive: 0.061.

For the target CCDC43 (UniProt Q96MW1), the log2 fold change was inactive: -0.056.

Regarding CCDC90B (UniProt Q9GZT6), the log2 fold change was inactive: 0.037.

With CBFB isoform 2 (UniProt Q13951), the log2 fold change was inactive: 0.026.

CAT (UniProt P04040): the log2 fold change is inactive: -0.019.

In the case of CBFA2T3 (UniProt O75081), the log2 fold change was inactive: -0.062.

Turning to CCT8 (UniProt P50990), the log2 fold change was inactive: -0.071.

As for CCNA2 (UniProt P20248), the log2 fold change was inactive: 0.002.

CDC27 isoform 2 (UniProt P30260): the log2 fold change is inactive: -0.006.

Take CBWD1 (UniProt Q9BRT8): the log2 fold change was inactive: -0.213.

For CASC4 (UniProt Q6P4E1), the log2 fold change was inactive: -0.027.

Regarding CARS isoform 3 (UniProt P49589), the log2 fold change is inactive: -0.041.

Consider CCDC88A (UniProt Q3V6T2), for which the log2 fold change was inactive: -0.067.

Turning to CD47 (UniProt Q08722), the log2 fold change was inactive: -0.028.

In the case of CCDC51 (UniProt Q96ER9), the log2 fold change is inactive: 0.005.

As for CBL (UniProt P22681), the log2 fold change is inactive: 0.019.

Consider CCDC93 (UniProt Q567U6), for which the log2 fold change is inactive: 0.059.

As for CD80 (UniProt P33681), the log2 fold change is inactive: -0.161.

Consider CBARP (UniProt Q8N350), for which the log2 fold change was inactive: 0.055.

For the target CARNMT1 (UniProt Q8N4J0), the log2 fold change was inactive: 0.025.

On to CDC37 (UniProt Q16543), for which the log2 fold change is inactive: -0.016.

CD46 isoform 2 (UniProt P15529): the log2 fold change was inactive: -0.053.

For the target CCDC134 (UniProt Q9H6E4), the log2 fold change is inactive: -0.016.

CDC37 (UniProt K7EKQ2): the log2 fold change was inactive: -0.179.

These data come from the supplement of paper PMC10849652.
